The supplement of paper PMC6289059
“And” between values parts separate entries of the source, which are not always exact repeats. Identical values can stand only once. The list shows a part of the results. Many values rest on one well or one pass, so single values are uncertain.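 Hepatocyte-like cells derived from human stem cells with CRISPR-disrupted DGUOK model liver mtDNA depletion syndrome. Each well's ATP signal was scored against other wells on the same plate, and drugs scoring 3 or above were primary hits.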

system: DGUOK Δ14/Δ5 iPSC-derived hepatocyte-like cells (SV20); assay: ATP level (CellTiter-Glo luminescence) Z score relative to plate distribution, under 2-DG glycolysis block; higher = more cellular ATP (rescue of mitochondrial ATP production); settings: 5 µM; treatment time: day 15 to day 20 of differentiation (5 days); 2-deoxy-D-glucose: 20 mM for 24 h before assay

Row | SMILES | ATP level
1 | NCC(=O)CCC(=O)O | inactive: 1.31
2 | COc1ccc(CN(CCN(C)C)c2ncccn2)cc1 | inactive: -4.79
3 | COc1c2ccoc2cc2oc(C)cc(=O)c12 | inactive: 0.565
4 | CCCCCC(=O)Cc1cc(O)cc(O)c1C(=O)Oc1cc(CC(=O)CCCCC)c(C(=O)O)c(OC)c1 | inactive: 0.428
5 | COc1ccc(-c2coc3cc(O)ccc3c2=O)c(O)c1O | inactive: 0.51
6 | COCCOC(=O)C1=C(C)NC(C)=C(C(=O)OC(C)C)C1c1cccc([N+](=O)[O-])c1 (configuration not stated) | inactive: -8.76
7 | NCCS | inactive: 2.21
8 | CN1C(C(=O)Nc2ccccn2)=C(O)c2ccccc2S1(=O)=O | inactive: -12.4
9 | COc1c(C)c2c(c(O)c1C/C=C(\C)CCC(=O)OCCN1CCOCC1)C(=O)OC2 | inactive: -1.48
10 | C[C@]12CCC(=O)C=C1C=C[C@@H]1[C@@H]2CC[C@@]2(C)[C@H]1CC[C@@]21CCC(=O)O1 | inactive: -1.68
11 | CC1(C)[C@@H](O)CC[C@]2(C)[C@H]3C(=O)C=C4[C@@H]5C[C@@](C)(C(=O)O)CC[C@]5(C)CC[C@@]4(C)[C@]3(C)CC[C@@H]12 | inactive: -6
12 | Cc1c(NC(C)C)c(=O)n(-c2ccccc2)n1C | inactive: 1.42
13 | CC(C[N+](C)(C)C)OC(N)=O (configuration not stated) | inactive: 0.0517
14 | CN(C)[C@@H]1C(=O)C(C(=O)NCN2CCCC2)=C(O)[C@@]2(O)C(=O)C3=C(O)c4c(O)cccc4[C@@](C)(O)[C@H]3C[C@@H]12 | inactive: 1.25
15 | CCCCCCCCCCOc1cc2c(O)c(C(=O)OCC)cnc2cc1OCC | inactive: 0.597
16 | CN(C)CCN(Cc1ccc(Cl)cc1)c1ccccn1 | inactive: -0.831
17 | COc1ccc([C@@H]2Sc3ccccc3N(CCN(C)C)C(=O)[C@@H]2OC(C)=O)cc1 | inactive: -17.8
18 | Cc1cn([C@H]2C[C@H](N=[N+]=[N-])[C@@H](CO)O2)c(=O)[nH]c1=O | inactive: -0.141
19 | CN(C)CCCC1(c2ccc(F)cc2)OCc2cc(C#N)ccc21 (configuration not stated) | inactive: -0.388

Row | SMILES | ATP level
20 | Cc1onc(-c2ccccc2)c1C(=O)N[C@@H]1C(=O)N2[C@@H]1SC(C)(C)[C@@H]2C(=O)O | inactive: 2.35
21 | COc1cc2c(cc1OC)C(=O)OC2 | inactive: 1.38
22 | OCC(O)CN1CCN(c2ccccc2)CC1 (configuration not stated) | inactive: 0.944
23 | COc1cc(N)c(Cl)cc1C(=O)NC1CCN(CCCOc2ccc(F)cc2)CC1OC (configuration not stated) | inactive: -3.01
24 | COc1c2c(cc3occ(-c4ccc5c(c4)OCO5)c(=O)c13)OC(C)(C)C=C2 | inactive: 0.217
25 | CC[C@H](/C=C/[C@@H](C)[C@H]1CC[C@H]2[C@@H]3CCC4=CC(=O)CC[C@]4(C)[C@H]3CC[C@]12C)C(C)C | inactive: -1.29
26 | COC1=CC(=O)C[C@@H](C)[C@]12Oc1c(Cl)c(OC)cc(OC)c1C2=O | inactive: 0.152
27 | CCC(=O)NCC[C@@H]1CCc2ccc3c(c21)CCO3 | inactive: 2.28
28 | CNC(=O)c1c(I)c(NC(C)=O)c(I)c(C(=O)O)c1I | inactive: -1.09
29 | COc1ccc(-c2coc3cc(O)cc(O)c3c2=O)cc1 | inactive: 2.24
30 | COc1ccc(CC(=O)c2ccc(O)cc2O)cc1 | inactive: 0.847
31 | COc1ccc(-c2cc(=O)c3c(O)cc(OC)c(OC)c3o2)c(OC)c1 | inactive: -3.55
32 | COC(=O)Nc1nc2cc(C(=O)c3ccc(F)cc3)ccc2[nH]1 | inactive: -2.19
33 | Nc1nc(=O)c2c([nH]1)NCC(CNc1ccc(C(=O)N[C@@H](CCC(=O)O)C(=O)O)cc1)=N2 | inactive: 2.3
34 | CCOC(=O)c1ccc(O)cc1 | inactive: 0.928
35 | O=C(O)c1ccccc1Nc1cccc(OCc2ccc3ccccc3n2)c1 | inactive: -3.12
36 | CC(O)CC(C)(C)O (configuration not stated) | inactive: -16.7
37 | COc1ccc2cc1Oc1ccc(cc1)C[C@H]1c3c(cc4c(c3Oc3cc5c(cc3OC)CCN(C)[C@@H]5C2)OCO4)CCN1C | inactive: -1.64
38 | Cn1c(=O)c2[nH]c(Br)nc2n(C)c1=O | inactive: -13

Row | SMILES | ATP level
39 | COC1=C(OC)C(=O)C(C/C=C(\C)CC/C=C(\C)CC/C=C(\C)CC/C=C(\C)CC/C=C(\C)CC/C=C(\C)CC/C=C(\C)CC/C=C(\C)CC/C=C(\C)CCC=C(C)C)=C(C)C1=O | inactive: 1.31
40 | Cc1c(OCC(F)(F)F)ccnc1C[S+]([O-])c1nc2ccccc2[nH]1 (configuration not stated) | inactive: -6.12
41 | O=C(/C=C/c1ccccc1)c1ccc(O)cc1O | inactive: 1.79
42 | Cn1c(=O)c2c(ncn2C)n(C)c1=O | inactive: 1.06
43 | S=P(N1CC1)(N1CC1)N1CC1 | inactive: -24.5
44 | CC(C)[C@@H]1CC[C@@H](C)C[C@H]1OC(=O)c1ccccc1 | inactive: 1.87
45 | Cc1cc(O)cc(=O)o1 | inactive: 0.841
46 | COC(=O)/C(=C1/OC(=O)C(c2ccccc2)=C1O)c1ccccc1 | inactive: 0.74
47 | CC(C)[C@H]1CC[C@H](C(=O)N[C@H](Cc2ccccc2)C(=O)O)CC1 | active: 4.57
48 | COc1c(O)cc2c(c1O)[C@@H]1O[C@H](CO)[C@@H](O)[C@H](O)[C@H]1OC2=O | inactive: 1.06
49 | CC(=O)Oc1cccc(C(=O)O)c1OC(C)=O | inactive: -0.676
50 | COc1ccc(C(C)=O)c(O)c1 | inactive: -1.36
51 | CC(C)c1nc(CN(C)C(=O)N[C@H](C(=O)N[C@@H](Cc2ccccc2)C[C@H](O)[C@H](Cc2ccccc2)NC(=O)OCc2cncs2)C(C)C)cs1 | inactive: 1.73
52 | COc1ccccc1OCCNCC(O)COc1cccc2[nH]c3ccccc3c12 (configuration not stated) | inactive: -3.9 and inactive: -9.09
53 | COc1cc2c(cc1OC)-c1c(oc3cc(O)cc(O)c3c1=O)CO2 | inactive: 0.808
54 | CC1CCc2cc(F)cc3c(=O)c(C(=O)O)cn1c23 (configuration not stated) | inactive: -5.18
55 | CCCCOc1ccc(OCCCN2CCOCC2)cc1 | inactive: -0.913
56 | CCCCCCCCCCCCCCCCC(C(=O)O)C(O)(CC(=O)O)C(=O)O (configuration not stated) | inactive: -0.0409
57 | CC(=O)O[C@H]1C[C@@H](OC(C)=O)C(C)(C)C2CC(=O)[C@]3(C)C(CC[C@@]4(C)[C@H](C(=O)O)OC(=O)C5OC543)[C@]21C (some centres not stated) | inactive: -0.785
